Source: PMC8591228
No constants are given. Whether binding was seen depends on the method and setting. In cells and extracts the contact can be indirect. Some results given as binding are weak or reduced against the parent protein; the word gives no strength. For some assays here: Tags and fused reporters may be left off the sequences shown.

Amino acid sequences for entries named in this document (tags omitted).
UniProt O75643: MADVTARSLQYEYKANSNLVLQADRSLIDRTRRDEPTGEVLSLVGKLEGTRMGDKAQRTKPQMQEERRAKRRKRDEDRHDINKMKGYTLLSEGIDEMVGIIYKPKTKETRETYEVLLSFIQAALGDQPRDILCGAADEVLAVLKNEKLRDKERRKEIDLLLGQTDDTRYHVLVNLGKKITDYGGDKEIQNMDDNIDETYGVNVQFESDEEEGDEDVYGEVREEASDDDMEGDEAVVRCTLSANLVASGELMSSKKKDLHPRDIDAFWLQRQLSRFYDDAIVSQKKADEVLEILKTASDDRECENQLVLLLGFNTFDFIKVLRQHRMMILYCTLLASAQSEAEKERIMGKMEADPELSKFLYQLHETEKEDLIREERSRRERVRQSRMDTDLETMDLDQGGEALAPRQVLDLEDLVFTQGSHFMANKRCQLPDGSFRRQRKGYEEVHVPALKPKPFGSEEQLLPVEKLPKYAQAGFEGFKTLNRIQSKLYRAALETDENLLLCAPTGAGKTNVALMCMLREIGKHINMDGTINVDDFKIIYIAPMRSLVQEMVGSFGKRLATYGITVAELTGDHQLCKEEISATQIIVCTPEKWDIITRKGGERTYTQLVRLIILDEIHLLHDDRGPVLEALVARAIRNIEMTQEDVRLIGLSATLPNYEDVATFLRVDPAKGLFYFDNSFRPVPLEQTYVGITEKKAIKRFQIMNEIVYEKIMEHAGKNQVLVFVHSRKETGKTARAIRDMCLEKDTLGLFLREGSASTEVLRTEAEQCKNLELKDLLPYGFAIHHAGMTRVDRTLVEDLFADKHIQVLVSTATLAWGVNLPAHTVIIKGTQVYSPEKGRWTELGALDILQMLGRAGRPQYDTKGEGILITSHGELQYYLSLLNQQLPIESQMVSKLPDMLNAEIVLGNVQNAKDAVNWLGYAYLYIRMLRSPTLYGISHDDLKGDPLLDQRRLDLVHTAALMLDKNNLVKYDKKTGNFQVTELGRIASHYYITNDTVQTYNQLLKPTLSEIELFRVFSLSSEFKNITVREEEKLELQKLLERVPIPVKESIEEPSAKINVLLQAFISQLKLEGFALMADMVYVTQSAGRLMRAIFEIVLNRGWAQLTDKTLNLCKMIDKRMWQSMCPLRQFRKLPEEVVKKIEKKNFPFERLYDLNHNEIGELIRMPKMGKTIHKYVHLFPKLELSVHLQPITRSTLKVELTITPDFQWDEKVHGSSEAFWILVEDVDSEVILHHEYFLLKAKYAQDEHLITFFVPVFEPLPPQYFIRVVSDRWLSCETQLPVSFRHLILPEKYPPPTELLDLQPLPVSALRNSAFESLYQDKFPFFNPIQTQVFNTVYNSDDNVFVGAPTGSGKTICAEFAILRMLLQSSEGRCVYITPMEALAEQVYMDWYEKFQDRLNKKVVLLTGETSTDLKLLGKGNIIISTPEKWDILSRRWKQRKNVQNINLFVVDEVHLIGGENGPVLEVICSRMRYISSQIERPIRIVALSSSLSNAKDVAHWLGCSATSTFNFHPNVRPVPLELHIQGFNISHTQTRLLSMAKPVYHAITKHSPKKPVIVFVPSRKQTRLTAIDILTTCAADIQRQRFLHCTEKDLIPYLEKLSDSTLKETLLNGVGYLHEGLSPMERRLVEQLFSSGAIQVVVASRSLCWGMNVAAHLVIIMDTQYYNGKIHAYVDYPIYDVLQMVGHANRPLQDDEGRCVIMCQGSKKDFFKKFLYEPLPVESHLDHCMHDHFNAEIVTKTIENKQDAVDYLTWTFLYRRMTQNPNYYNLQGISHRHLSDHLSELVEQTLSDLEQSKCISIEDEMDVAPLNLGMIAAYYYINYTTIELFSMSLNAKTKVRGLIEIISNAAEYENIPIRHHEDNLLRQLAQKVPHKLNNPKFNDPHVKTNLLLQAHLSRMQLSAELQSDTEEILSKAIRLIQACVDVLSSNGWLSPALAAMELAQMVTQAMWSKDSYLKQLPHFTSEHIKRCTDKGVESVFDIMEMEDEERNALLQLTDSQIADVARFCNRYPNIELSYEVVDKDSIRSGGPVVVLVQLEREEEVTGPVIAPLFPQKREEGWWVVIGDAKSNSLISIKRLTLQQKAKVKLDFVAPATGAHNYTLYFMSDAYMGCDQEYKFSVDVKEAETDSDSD

Tests used:
[1] = target: T1, HA-METTL7A (human) (UniProt Q9H8H3); test: co-IP; DPSC lysates (IP lysis buffer) incubated with a specific antibody for 4 h, then protein A/G Sepharose or HA tag beads overnight at 4°C, washed three times with PBS, western blot; DPSCs with Consh or METTL7Ash, Vector or HA-METTL7A
T1 sequence: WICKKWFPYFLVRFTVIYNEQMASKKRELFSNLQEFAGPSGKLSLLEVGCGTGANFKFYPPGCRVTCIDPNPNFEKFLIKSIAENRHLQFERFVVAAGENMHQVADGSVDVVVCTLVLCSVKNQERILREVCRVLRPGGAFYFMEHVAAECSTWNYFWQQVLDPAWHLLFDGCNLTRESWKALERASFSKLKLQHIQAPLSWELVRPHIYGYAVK

[2] = target: T2, Methyltransferase like 7A (METTL7A), endogenous in DPSCs (human (endogenous in DPSCs)) (UniProt Q9H8H3); test: as above
T2 sequence: T1 sequence

binding [1]: binds
binding [2]: binds
Substance: SNRNP200 (from UniProt O75643 1-2136)
